Data from the supplement of paper PMC10849652.
This is one part of the list.

Chains of the proteins cited; added tags and fusions are not shown. Lines headed by an entry give the natural chain unless they say otherwise; changes in a name come on top.
UniProt P01023, whole entry, looked up: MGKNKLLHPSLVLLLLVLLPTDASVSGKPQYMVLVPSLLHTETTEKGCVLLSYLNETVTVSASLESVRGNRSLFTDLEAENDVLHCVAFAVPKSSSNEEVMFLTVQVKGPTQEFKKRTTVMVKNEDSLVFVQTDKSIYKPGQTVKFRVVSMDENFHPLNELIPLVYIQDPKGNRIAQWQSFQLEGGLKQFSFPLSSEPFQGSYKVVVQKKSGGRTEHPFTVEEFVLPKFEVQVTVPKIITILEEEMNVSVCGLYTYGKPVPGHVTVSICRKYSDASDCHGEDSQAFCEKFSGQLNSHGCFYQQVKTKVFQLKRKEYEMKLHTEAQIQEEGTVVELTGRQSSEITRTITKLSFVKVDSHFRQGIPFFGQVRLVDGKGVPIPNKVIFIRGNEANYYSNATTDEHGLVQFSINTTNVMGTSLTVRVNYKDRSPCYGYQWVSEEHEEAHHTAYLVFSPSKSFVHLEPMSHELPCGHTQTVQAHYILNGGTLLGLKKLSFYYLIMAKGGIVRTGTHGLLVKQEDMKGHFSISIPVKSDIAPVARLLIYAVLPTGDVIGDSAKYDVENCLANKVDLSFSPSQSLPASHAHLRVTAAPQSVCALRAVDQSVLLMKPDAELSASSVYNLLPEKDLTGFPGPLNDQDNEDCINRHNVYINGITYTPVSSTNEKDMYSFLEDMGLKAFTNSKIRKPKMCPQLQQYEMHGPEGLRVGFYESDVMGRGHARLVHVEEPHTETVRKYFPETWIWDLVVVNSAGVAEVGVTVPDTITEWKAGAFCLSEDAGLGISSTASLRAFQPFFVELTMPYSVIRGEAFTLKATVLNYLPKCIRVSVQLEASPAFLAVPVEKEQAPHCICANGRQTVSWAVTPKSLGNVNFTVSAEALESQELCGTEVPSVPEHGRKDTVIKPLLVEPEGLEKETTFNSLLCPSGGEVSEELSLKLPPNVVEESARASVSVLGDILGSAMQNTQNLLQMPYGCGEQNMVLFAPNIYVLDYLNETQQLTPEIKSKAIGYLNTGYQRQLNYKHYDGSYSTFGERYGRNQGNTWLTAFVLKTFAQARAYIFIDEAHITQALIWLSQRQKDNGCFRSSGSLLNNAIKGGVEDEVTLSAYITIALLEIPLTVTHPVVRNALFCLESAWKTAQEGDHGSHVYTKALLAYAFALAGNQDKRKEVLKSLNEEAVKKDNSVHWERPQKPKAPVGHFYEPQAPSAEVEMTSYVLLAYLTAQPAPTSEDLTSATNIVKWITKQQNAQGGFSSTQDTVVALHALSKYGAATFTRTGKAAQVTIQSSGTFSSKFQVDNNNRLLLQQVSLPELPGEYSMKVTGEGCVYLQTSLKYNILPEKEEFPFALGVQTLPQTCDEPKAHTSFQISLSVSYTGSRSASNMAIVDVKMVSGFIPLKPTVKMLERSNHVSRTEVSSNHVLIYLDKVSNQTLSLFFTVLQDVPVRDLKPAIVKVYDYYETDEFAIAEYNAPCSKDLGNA
UniProt Q9NR19, whole entry, looked up: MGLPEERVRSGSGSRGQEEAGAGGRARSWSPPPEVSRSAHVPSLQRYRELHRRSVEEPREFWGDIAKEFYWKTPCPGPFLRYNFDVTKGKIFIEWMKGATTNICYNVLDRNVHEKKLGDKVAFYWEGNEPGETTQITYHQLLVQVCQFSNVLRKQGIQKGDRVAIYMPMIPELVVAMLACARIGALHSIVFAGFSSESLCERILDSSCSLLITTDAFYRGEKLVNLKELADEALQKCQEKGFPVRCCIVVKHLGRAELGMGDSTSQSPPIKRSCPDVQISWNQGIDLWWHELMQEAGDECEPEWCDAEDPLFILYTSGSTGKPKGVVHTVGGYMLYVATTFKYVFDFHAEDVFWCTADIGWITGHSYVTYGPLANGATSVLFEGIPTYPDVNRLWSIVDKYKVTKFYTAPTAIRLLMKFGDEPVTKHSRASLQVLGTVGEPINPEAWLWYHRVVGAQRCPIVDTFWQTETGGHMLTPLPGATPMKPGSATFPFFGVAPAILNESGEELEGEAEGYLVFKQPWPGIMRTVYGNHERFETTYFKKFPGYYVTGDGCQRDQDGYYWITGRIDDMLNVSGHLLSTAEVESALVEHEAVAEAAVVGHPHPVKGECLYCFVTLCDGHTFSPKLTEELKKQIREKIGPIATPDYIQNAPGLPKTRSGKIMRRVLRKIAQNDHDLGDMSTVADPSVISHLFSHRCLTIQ
UniProt P61163, whole entry, looked up: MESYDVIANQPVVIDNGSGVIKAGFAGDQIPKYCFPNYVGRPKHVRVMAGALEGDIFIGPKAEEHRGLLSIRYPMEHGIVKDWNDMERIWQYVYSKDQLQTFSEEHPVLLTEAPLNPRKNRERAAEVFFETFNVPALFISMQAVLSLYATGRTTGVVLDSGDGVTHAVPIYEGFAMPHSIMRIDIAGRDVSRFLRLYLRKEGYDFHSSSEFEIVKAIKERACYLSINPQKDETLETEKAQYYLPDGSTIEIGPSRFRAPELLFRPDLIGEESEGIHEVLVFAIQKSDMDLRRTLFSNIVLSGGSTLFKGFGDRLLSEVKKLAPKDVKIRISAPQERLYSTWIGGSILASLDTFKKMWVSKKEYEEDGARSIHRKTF
UniProt P55265: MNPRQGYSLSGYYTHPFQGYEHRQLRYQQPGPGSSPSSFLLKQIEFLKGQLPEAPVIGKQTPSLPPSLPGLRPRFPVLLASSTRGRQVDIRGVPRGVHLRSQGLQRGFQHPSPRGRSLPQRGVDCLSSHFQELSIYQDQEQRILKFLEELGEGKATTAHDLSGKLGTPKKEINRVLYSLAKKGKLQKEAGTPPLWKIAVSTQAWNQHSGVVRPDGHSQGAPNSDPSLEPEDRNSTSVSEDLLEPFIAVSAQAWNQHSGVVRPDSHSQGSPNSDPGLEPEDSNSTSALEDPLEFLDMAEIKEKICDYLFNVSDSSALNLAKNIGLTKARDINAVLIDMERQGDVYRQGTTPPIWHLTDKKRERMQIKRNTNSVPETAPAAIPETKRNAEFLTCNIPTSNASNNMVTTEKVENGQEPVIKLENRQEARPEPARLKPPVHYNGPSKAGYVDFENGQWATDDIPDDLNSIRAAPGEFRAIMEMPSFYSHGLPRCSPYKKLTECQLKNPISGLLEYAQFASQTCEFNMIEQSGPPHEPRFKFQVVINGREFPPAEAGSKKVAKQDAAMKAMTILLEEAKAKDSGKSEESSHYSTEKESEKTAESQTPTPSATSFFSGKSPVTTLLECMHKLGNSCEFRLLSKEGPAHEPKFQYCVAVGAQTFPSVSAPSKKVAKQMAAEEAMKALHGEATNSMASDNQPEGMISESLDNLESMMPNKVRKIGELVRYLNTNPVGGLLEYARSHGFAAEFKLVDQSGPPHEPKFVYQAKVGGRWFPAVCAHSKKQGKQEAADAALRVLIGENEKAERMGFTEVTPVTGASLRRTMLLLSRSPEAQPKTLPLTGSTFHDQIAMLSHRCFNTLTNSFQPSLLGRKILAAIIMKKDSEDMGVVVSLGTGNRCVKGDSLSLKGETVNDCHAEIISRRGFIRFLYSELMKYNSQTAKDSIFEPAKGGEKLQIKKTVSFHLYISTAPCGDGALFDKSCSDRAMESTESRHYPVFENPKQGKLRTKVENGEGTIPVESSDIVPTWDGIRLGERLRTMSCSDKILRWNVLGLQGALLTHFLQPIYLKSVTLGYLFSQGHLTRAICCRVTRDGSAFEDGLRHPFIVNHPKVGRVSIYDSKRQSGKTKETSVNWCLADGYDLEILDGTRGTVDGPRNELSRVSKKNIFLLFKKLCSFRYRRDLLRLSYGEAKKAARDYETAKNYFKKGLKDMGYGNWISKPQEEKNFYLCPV
UniProt O00154: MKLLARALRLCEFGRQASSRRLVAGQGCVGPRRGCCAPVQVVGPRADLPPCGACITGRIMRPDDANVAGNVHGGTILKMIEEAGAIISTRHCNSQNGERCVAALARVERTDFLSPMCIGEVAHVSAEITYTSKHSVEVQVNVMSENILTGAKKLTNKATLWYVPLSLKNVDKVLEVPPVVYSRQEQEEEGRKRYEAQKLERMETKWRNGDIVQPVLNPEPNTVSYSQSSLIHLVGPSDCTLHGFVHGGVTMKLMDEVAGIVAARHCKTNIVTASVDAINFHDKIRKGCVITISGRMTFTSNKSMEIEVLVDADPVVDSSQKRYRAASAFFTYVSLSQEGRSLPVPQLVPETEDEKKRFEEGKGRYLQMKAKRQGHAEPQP
UniProt Q9H845: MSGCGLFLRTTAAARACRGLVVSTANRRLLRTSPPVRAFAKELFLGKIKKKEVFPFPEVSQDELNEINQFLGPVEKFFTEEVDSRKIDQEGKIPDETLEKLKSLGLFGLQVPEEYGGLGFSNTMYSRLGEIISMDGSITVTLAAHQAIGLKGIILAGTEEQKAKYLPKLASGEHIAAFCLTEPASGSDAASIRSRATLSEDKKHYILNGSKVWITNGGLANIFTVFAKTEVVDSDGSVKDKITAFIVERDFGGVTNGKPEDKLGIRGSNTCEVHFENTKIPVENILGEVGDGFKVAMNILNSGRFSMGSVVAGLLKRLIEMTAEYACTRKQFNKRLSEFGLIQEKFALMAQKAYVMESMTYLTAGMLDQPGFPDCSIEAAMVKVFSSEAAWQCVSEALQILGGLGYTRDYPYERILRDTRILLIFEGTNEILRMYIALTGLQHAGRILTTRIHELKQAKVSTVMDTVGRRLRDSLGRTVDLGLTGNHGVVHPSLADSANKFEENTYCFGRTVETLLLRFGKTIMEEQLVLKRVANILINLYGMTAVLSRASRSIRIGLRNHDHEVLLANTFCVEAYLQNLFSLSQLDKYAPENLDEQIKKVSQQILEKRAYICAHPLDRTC
UniProt Q9BTE6: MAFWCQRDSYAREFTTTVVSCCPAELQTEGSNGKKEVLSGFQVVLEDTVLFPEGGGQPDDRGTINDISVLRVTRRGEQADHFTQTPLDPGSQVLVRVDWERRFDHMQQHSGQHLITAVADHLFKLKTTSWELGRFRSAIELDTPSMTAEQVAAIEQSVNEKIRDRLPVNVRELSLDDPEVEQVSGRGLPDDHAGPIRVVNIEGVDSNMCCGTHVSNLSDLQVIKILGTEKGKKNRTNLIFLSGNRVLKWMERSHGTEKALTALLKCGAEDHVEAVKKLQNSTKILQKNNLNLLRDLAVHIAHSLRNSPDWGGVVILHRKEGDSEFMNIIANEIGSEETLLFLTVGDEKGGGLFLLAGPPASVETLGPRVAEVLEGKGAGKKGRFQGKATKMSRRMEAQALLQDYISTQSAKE
UniProt Q53FZ2: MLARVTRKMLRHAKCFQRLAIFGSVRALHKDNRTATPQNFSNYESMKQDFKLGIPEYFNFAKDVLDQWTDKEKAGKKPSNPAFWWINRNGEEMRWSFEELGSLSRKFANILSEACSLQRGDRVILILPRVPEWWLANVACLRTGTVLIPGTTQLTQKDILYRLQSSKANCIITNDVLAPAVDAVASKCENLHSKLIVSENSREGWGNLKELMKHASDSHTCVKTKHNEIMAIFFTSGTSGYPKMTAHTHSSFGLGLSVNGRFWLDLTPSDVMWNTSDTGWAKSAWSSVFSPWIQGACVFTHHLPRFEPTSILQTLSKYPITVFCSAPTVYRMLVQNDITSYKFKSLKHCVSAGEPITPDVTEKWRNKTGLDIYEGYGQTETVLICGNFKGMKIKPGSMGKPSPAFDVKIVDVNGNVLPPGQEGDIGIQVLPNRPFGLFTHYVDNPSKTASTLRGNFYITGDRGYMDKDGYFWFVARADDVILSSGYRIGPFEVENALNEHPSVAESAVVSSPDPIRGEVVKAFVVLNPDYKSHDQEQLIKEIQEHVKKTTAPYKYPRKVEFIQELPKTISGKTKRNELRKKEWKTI
UniProt O75027: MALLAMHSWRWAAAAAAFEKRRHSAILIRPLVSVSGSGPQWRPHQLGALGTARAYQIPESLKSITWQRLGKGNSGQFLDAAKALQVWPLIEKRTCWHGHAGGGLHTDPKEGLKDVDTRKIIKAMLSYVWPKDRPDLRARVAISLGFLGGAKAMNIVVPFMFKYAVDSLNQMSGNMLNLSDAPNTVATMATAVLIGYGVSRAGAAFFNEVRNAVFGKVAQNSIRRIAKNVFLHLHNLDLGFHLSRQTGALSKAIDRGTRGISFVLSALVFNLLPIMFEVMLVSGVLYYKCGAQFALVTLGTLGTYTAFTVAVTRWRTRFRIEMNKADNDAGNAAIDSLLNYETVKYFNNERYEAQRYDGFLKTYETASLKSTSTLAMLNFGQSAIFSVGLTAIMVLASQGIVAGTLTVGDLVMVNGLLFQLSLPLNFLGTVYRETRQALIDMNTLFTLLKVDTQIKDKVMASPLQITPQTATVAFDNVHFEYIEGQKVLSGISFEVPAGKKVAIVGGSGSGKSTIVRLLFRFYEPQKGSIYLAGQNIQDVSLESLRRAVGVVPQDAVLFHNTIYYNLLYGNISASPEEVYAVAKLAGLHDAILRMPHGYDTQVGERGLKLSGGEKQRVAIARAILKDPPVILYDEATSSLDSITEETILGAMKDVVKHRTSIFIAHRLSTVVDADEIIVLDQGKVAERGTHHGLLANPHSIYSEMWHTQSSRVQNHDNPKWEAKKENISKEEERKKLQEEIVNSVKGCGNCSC

How the values were obtained:
Experiment in all cases: log2 fold change, soluble protein after heating vs DMSO (PISA); higher = thermal stabilisation; K562 cells, 10 uM, 30 min; active = over 0.2 and 3.5 SD of the protein, either way, in both replicates (recomputed)
[1] = compound: CN1CCN(CCOc2cc(OC3CCOCC3)c3c(Nc4c(Cl)ccc5c4OCO5)ncnc3c2)CC1 [saracatinib]
Method in brief: (§1)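 K562 cells at 2×10^6 cells/mL were exposed to 10 μM compound for 30 min, then aliquots were heated for 3 min across 48°C-58°C, pooled, and extracted in PBS containing 0.5% NP-40 at 4°C. The supernatant after 21,000xg for 90 min was taken as soluble protein and measured by TMTpro 16plex LC-MS/MS with channel sums equalised. Thermal stability is reported relative to control samples, with values from duplicates. Fold changes are given on a log2 scale.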

[2] = compound: CN1CCN(c2nc(C3=C(c4c[nH]c5ccccc45)C(=O)NC3=O)c3ccccc3n2)CC1 [sotrastaurin]
Method in brief: as §1

[3] = compound: CN1CC[C@H](c2c(O)cc(O)c3c(=O)cc(-c4ccccc4Cl)oc23)[C@H](O)C1 [alvocidib]
Method in brief: as §1

[4] = compound: CN1CCc2c(c3ccccc3n2Cc2ccc(C(=O)NO)cc2)C1 [Tubastatin A]
Method in brief: as §1

[5] = compound: CNC(=O)C1=CC=CC=C1NC2=NC(=NC=C2Cl)NC3=C(C=C(C=C3)N4CCOCC4)OC
Method in brief: as §1

[6] = compound: CNC(=O)c1ccc(Nc2ncc(C(F)(F)F)c(NCc3nccnc3N(C)S(C)(=O)=O)n2)cc1 [defactinib]
Method in brief: as §1

[7] = compound: CNCc1ccc(-c2[nH]c3cc(F)cc4c3c2CCNC4=O)cc1 [rucaparib]
Method in brief: as §1

[8] = compound: CNc1nc(-c2ccc3c(N)n[nH]c3c2)cc(N2C[C@@H](C(=O)NC3CCCCC3)CC[C@H]2C)n1
Method in brief: as §1

[9] = compound: COC(=O)N[C@@H](C)CNc1nccc(-c2cn(C(C)C)nc2-c2cc(Cl)cc(NS(C)(=O)=O)c2F)n1 [encorafenib]
Method in brief: as §1

[10] = compound: COC(=O)[C@H](CCSC)NC(=O)C1=C(C=C(C=C1)NC[C@H](CS)N)C2=CC=CC=C2
Method in brief: as §1

[11] = compound: COC1=CC=C(C=C1)CN2C=CC3=C2C=C(C=C3)C(=O)NO
Method in brief: as §1

[12] = compound: CON(C)C(=O)N1N=C(c2cc(F)ccc2F)S[C@@]1(CCCN)c1ccccc1 [filanesib]
Method in brief: as §1

[13] = compound: CO[C@H]1C[C@@H]2CC[C@@H](C)[C@@](O)(O2)C(=O)C(=O)N2CCCC[C@H]2C(=O)O[C@H]([C@H](C)C[C@@H]2CC[C@H](n3cnnn3)[C@H](OC)C2)CC(=O)[C@H](C)/C=C(\C)[C@@H](O)[C@@H](OC)C(=O)[C@H](C)C[C@H](C)/C=C/C=C/C=C/1C [zotarolimus]
Method in brief: as §1

[14] = compound: COc1cc(C(=O)O)ccc1NC(=O)[C@@H]1N[C@@H](CC(C)(C)C)[C@](C#N)(c2ccc(Cl)cc2F)[C@H]1c1cccc(Cl)c1F [idasanutlin]
Method in brief: as §1

[15] = compound: COc1cc(Nc2ncc3c(n2)-c2ccc(Cl)cc2C(c2c(F)cccc2OC)=NC3)ccc1C(=O)O [alisertib]
Method in brief: as §1

[16] = compound: COc1cc2nc(-c3cc(F)ccc3O)nc(N[C@@H]3CNC[C@H]3C(C)(C)O)c2cc1OC
Method in brief: as §1

[17] = compound: COc1cc2ncnc(Nc3ccc(F)c(Cl)c3)c2cc1OCCCN1CCOCC1 [gefitinib]
Method in brief: as §1

[18] = compound: COc1cccc2cc(-c3nc([C@H]4CC[C@H](C(=O)O)CC4)n4ncnc(N)c34)[nH]c12
Method in brief: as §1

[19] = compound: CS(=O)(=O)CCNCc1ccc(-c2ccc3ncnc(Nc4ccc(OCc5cccc(F)c5)c(Cl)c4)c3c2)o1 [lapatinib]
Method in brief: as §1

[20] = compound: CS(=O)(=O)N1CCN(Cc2cc3nc(-c4cccc5[nH]ncc45)nc(N4CCOCC4)c3s2)CC1 [pictilisib]
Method in brief: as §1

Measured: log2 fold change

ABCD3 (UniProt P28288)
inactive: [1] 0.006 | [2] 0.006 | [3] 0.003 | [4] -0.006 | [5] -0.007 | [6] -0.009 | [7] 0.002 | [8] 0.034 | [9] 0.037 | [10] -0.036 | [11] -0.005 | [12] 0.033 | [13] 0.016 | [14] -0.13 | [15] -0.012 | [16] 0.193 | [17] 0 | [18] 0.037 | [19] -0.02 | [20] 0.11

ADAM10 (UniProt O14672)
inactive: [1] -0.017 | [2] -0.003 | [3] -0.018 | [4] -0.014 | [5] -0.025 | [6] -0.053 | [7] -0.003 | [8] 0.052 | [9] 0.002 | [10] -0.001 | [11] 0.028 | [12] 0.041 | [13] 0.017 | [14] 0.04 | [15] -0.073 | [16] 0.018 | [17] -0.012 | [18] -0.003 | [19] -0.045 | [20] 0.019

A2M (UniProt P01023)
inactive: [1] 0.441 | [2] 0.227 | [3] 0.103 | [4] -0.088 | [5] 0.118 | [6] -0.1 | [7] -0.227 | [8] 0.111 | [9] 0.061 | [10] 0.109 | [11] -0.073 | [12] 0.189 | [13] -0.184 | [14] 0.083 | [15] -0.055 | [16] -0.188 | [17] -0.159 | [18] 0.374 | [19] -0.021 | [20] 0.069

2 records drawn at random from the list so far:
ADAM10 (UniProt O14672)
inactive: [1] -0.017 | [2] -0.003 | [3] -0.018 | [4] -0.014 | [5] -0.025 | [6] -0.053 | [7] -0.003 | [8] 0.052 | [9] 0.002 | [10] -0.001 | [11] 0.028 | [12] 0.041 | [13] 0.017 | [14] 0.04 | [15] -0.073 | [16] 0.018 | [17] -0.012 | [18] -0.003 | [19] -0.045 | [20] 0.019

A2M (UniProt P01023)
inactive: [1] 0.441 | [2] 0.227 | [3] 0.103 | [4] -0.088 | [5] 0.118 | [6] -0.1 | [7] -0.227 | [8] 0.111 | [9] 0.061 | [10] 0.109 | [11] -0.073 | [12] 0.189 | [13] -0.184 | [14] 0.083 | [15] -0.055 | [16] -0.188 | [17] -0.159 | [18] 0.374 | [19] -0.021 | [20] 0.069

The results go on:

ACSS2 isoform 2 (UniProt Q9NR19)
inactive: [1] 0.016 | [2] 0.006 | [3] -0.073 | [4] -0.025 | [5] 0.026 | [6] -0.08 | [7] -0.042 | [8] -0.003 | [9] 0.031 | [10] 0.013 | [11] -0.087 | [12] -0.033 | [13] 0.02 | [14] -0.085 | [15] -0.032 | [16] 0.049 | [17] 0.029 | [18] -0.01 | [19] 0 | [20] 0.075

ACTR1A (UniProt P61163)
inactive: [1] 0.004 | [2] -0.009 | [3] -0.025 | [4] -0.006 | [5] 0.03 | [6] -0.015 | [7] 0.051 | [8] 0.02 | [9] -0.012 | [10] 0 | [11] 0.028 | [12] 0.009 | [13] 0.005 | [14] 0.004 | [15] -0.032 | [16] 0.122 | [17] 0.045 | [18] -0.006 | [19] -0.029 | [20] 0.032

ADAR isoform 4 (UniProt P55265)
inactive: [1] 0.182 | [2] -0.126 | [3] 0.054 | [4] 0.02 | [5] 0.058 | [6] 0.052 | [7] -0.232 | [8] -0.025 | [9] -0.079 | [10] 0.218 | [11] -0.096 | [12] 0.272 | [13] -0.018 | [14] -0.279 | [15] 0.195 | [16] -0.181 | [17] -0.152 | [18] 0.186 | [19] -0.177 | [20] 0.01

ACOT7 isoform 7 (UniProt O00154)
inactive: [1] 0.08 | [2] 0.018 | [3] -0.002 | [4] -0.014 | [5] -0.056 | [6] -0.019 | [7] -0.026 | [8] -0.016 | [9] -0.014 | [10] 0.014 | [11] 0.002 | [12] -0.021 | [13] 0.014 | [14] -0.056 | [15] -0.161 | [16] 0.002 | [17] -0.003 | [18] 0.013 | [19] 0.015 | [20] 0.009

ACAD9 (UniProt Q9H845)
inactive: [1] 0.008 | [2] 0.004 | [4] -0.041 | [5] -0.001 | [6] -0.026 | [7] -0.038 | [8] -0.025 | [9] -0.004 | [10] -0.015 | [11] -0.005 | [12] -0.069 | [13] -0.017 | [14] 0.017 | [15] -0.012 | [16] 0.03 | [17] 0.016 | [18] 0.083 | [19] -0.015 | [20] 0.082

ACTN1 (UniProt P12814)
inactive: [1] 0.013 | [2] 0.04 | [3] -0.018 | [4] 0.015 | [5] -0.014 | [6] -0.014 | [7] -0.087 | [8] -0.037 | [9] -0.014 | [10] 0.002 | [11] 0.046 | [12] 0.003 | [13] 0.018 | [14] -0.045 | [15] -0.031 | [16] 0.012 | [17] -0.011 | [18] 0.032 | [19] 0.001 | [20] 0.034

AARSD1 isoform 3 (UniProt Q9BTE6)
inactive: [1] -0.009 | [2] -0.113 | [5] 0.081 | [6] -0.071 | [7] -0.077 | [8] -0.037 | [9] 0.08 | [10] 0.004 | [12] -0.013 | [13] 0.012 | [14] 0.076 | [15] -0.067 | [16] -0.012 | [17] 0.083 | [18] -0.081 | [19] 0.045 | [20] 0.029
active: [4] -0.336 | [11] -0.47

ABRAXAS1 (UniProt Q6UWZ7)
inactive: [1] 0.088 | [2] 0.165 | [3] 0.336 | [4] 0.034 | [5] 0.015 | [6] 0.19 | [7] 0.501 | [8] -0.02 | [9] -0.013 | [10] -0.015 | [11] -0.043 | [12] 0.31 | [13] 0.073 | [14] 0.263 | [15] -0.251 | [16] 0.057 | [18] 0.042 | [19] 0.017 | [20] 0.02

ACOT8 (UniProt O14734)
inactive: [1] 0.013 | [2] 0.07 | [3] -0.007 | [4] 0.023 | [5] 0.02 | [6] -0.014 | [7] -0.02 | [8] -0.003 | [9] -0.031 | [10] 0.074 | [11] 0.001 | [12] -0.022 | [13] -0.06 | [14] -0.036 | [15] -0.017 | [16] 0.066 | [17] 0.022 | [18] 0.163 | [19] -0.044 | [20] 0.043

ADA (UniProt P00813)
inactive: [1] -0.011 | [2] 0.047 | [3] 0.025 | [4] -0.023 | [5] -0.02 | [6] 0 | [7] -0.086 | [8] -0.069 | [9] -0.019 | [10] 0.075 | [11] -0.014 | [12] 0.027 | [13] -0.082 | [14] 0.08 | [15] -0.006 | [16] 0.056 | [17] -0.056 | [18] 0.008 | [19] -0.002 | [20] 0.011

ACSM3 (UniProt Q53FZ2)
inactive: [1] 0.031 | [2] 0.018 | [4] 0.009 | [5] 0.053 | [6] -0.148 | [7] 0.142 | [8] -0.09 | [9] 0.021 | [10] -0.064 | [11] 0.134 | [12] -0.056 | [13] 0.009 | [14] -0.017 | [15] -0.033 | [16] 0.101 | [17] -0.034 | [18] 0.028 | [19] -0.025 | [20] 0.198

ACTB, A0A2R8YEA7
inactive: [1] -0.117 | [2] -0.049 | [3] 0.302 | [4] 0.122 | [5] -0.008 | [6] -0.071 | [7] -0.116 | [8] -0.217 | [9] -0.027 | [10] -0.066 | [12] 0.445 | [13] -0.111 | [14] -0.165 | [15] 0 | [17] -0.056 | [18] -0.026

ABCB7 isoform 2 (UniProt O75027)
inactive: [1] 0.038 | [2] 0.047 | [3] -0.076 | [4] 0.014 | [5] -0.002 | [6] -0.05 | [7] -0.03 | [8] -0.015 | [9] 0.017 | [10] -0.009 | [11] -0.05 | [12] -0.164 | [13] 0.017 | [14] -0.125 | [15] -0.02 | [16] -0.031 | [17] -0.003 | [18] 0.052 | [19] 0.022 | [20] 0.002
